The other results are listed elsewhere or left out. No rule for the calls is given here. Single values are uncertain here, since repeats match poorly.

The test system of this assay is Lgr5 (MarsCy1-Lgr5-EGFP, U2OS). Put plainly: cell-surface Lgr5 expression (SCi1 fluorescence, background-subtracted) relative to WT DMSO (fold of DMSO control); higher = more Lgr5 at the plasma membrane. The note with it: U2OS MarsCy1-Lgr5-EGFP stable; treatment time: overnight; library: Kinase Gold; 20 µM. The procedure: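 U2OS cells stably expressing MarsCy1-Lgr5-EGFP in 384-well plates were incubated overnight with single-dose compounds. Cell-surface Lgr5 was stained with SCi1 and scanned at 700 nm on a LI-COR Odyssey. Intensity was background-subtracted (parental U2OS) and expressed relative to WT DMSO wells.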
`COc1ccc(OCC(=O)NNC(=O)c2ccco2)cc1`: the “cell-surface Lgr5 expression” value is inactive: 0.88.
Under `NC(=O)c1ccc[n+](CCC[n+]2cccc(C(N)=O)c2)c1` stands inactive: 0.786; under `CC(=O)Nc1ccc(Nc2cc(C)nc3ccc(C)cc23)cc1`, inactive: 1.08; under `Cc1ccc(NC(=O)c2cccs2)cc1NC(=O)c1ccccc1`, inactive: 0.76.
As for `NNc1nc(NCc2ccccc2)nc(N2CCOCC2)n1`, the “cell-surface Lgr5 expression” value was inactive: 0.583.
Under `Cc1cccc(NC(=O)c2c(O)c3ccccc3[nH]c2=O)c1` stands inactive: 0.909; under `CC(=O)Nc1ccc(/C=C2/SC(=O)NC2=O)cc1`, inactive: 0.822.
With `O=C(Nc1nc2ccccc2o1)Nc1ccccc1Cl` the figure was inactive: 0.595; with `CN(C)c1ccc2c3c(cccc13)C(=O)N(c1ccc(O)cc1)C2=O`, inactive: 0.789; with `COC(=O)c1c(N)sc(C(=O)Nc2cccc(Cl)c2C)c1C`, inactive: 0.946.
Under `O=C(Nc1nc2ccccc2n1CCN1CCCCC1)c1ccco1` stands inactive: 0.993; under `Cc1ccc2c(n1)sc1c(-c3ccccc3)c(C#N)c(N)nc12`, inactive: 0.702.
On to `O=C(NNC(=O)c1cccnc1)Nc1ccccc1`, for which the “cell-surface Lgr5 expression” value is inactive: 0.894.
Under `O=C(/C=C\Nc1ccc2[nH]ncc2c1)c1ccco1` stands inactive: 0.659; under `CCn1c(=O)c(C(=O)NNC(=O)C(C)C)c(O)c2ccccc21`, inactive: 0.771.
With `c1ccc2[nH]c(NCc3ccc4c(c3)OCO4)nc2c1` the figure was inactive: 0.712.
Under `O=C(Nc1ccc2ncccc2c1)c1ccccc1Br` stands inactive: 0.818.
For `O=C(/C=C/c1ccccc1)c1ccc2c(c1)OCCCO2`, the “cell-surface Lgr5 expression” value was active: 1.49.
Under `CC(=O)NNc1cc(C)nc(NS(=O)(=O)c2ccc(C)cc2)n1` stands inactive: 0.944.
With `COc1ccc(C(=O)NC(=S)Nc2cccnc2)cc1OC` the figure was inactive: 0.93; with `O=C(Cc1ccccc1)NNC(=O)c1c(O)c2ccccc2[nH]c1=O`, inactive: 0.688.
In the case of `Cc1cc(NC(=O)c2cccnc2)ccc1NC(=O)c1ccco1`, the “cell-surface Lgr5 expression” value is inactive: 0.851.
With `O=C(O)c1ccc(NC2CC(O)C(CO)O2)cc1` (stereo not given) the figure was inactive: 0.947; with `Cc1cccc(Nc2nc(OCC#N)nc(N(C)C)n2)c1`, inactive: 0.833.
Under `Cc1ccc2cccc(NC(=S)NC(=O)c3cccnc3)c2n1` stands inactive: 0.692.
Turning to `O=C(NC(=S)NNC(=O)c1ccccc1O)c1cccnc1`, the “cell-surface Lgr5 expression” value was inactive: 0.724.
With `CC/C(=C\C(=O)c1cccnc1)Nc1cccc(O)c1` the figure was inactive: 0.7; with `CC(=O)Nc1c(C(=O)O)[nH]c2ccc(F)cc12`, inactive: 0.905; with `Cn1c(=O)c(C(=O)Nc2ccc(F)cc2)c(O)c2ccccc21`, inactive: 0.948.
With `NNc1nc(Nc2cccc(Cl)c2)nc(N2CCOCC2)n1` the figure was inactive: 0.441; with `NS(=O)(=O)c1ccc(N/C=C\C(=O)c2ccc3c(c2)OCO3)cc1`, inactive: 0.904.
With `CC(Oc1ccc2c(c1)oc(=O)c1ccccc12)C(=O)O` (stereo not given) the figure was inactive: 0.82; with `COC(=O)c1ccc(Nc2cc(=O)[nH]c(=O)[nH]2)cc1`, inactive: 0.824.
For `Cc1nc(-c2ccc(NC(=O)/C=C\C(=O)O)cc2)cs1`, the “cell-surface Lgr5 expression” value is inactive: 0.971.
Turning to `O=C(O)c1cc(-c2ccccc2)nc2ccc(F)cc12`, the “cell-surface Lgr5 expression” value is inactive: 0.929.
Under `CCC1(C)COC(C)(CC(=O)NNC(=O)Nc2ccccc2)OC1` (stereo not given) stands inactive: 0.666; under `Cc1nnc(NC(=O)c2c(O)c3ccccc3n(C)c2=O)s1`, inactive: 0.752; under `O=C(NNC(=O)c1ccco1)c1cnccn1`, inactive: 0.827.
Under `CCOC(=O)/C(=C\c1ccc([N+](=O)[O-])o1)NC(=O)c1ccccc1` stands inactive: 1.07.
Under `Nc1nc(NC(=S)Nc2ccccc2)cc(=O)[nH]1` stands inactive: 0.72.
